Hit rate of the full screen: of about 52,000 sequences, about 210 (0.4%) were called active.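 The calls were made as follows: active = gene whose silencing raises cell survival under the drug, median off-target-corrected z-score across its silencing RNAs 2 or more; inactive = the rest.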 This is one part of the list.
assay: Resistance to Poly (ADP-Ribose) Polymerase inhibitor: Gene Identification via Genome-wide siRNA Screen; settings: mouse BRCA2 R2336H ES cells, olaparib, CellTiter-Glo viability; stronger effect = higher value
Procedure, shortened: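 Genome-wide siRNA screen (3 siRNAs/gene, 20 nM) in mouse ES cells carrying hypomorphic BRCA2 R2336H; olaparib 500 nM added 48 h post-transfection, CellTiter-Glo viability 72 h later. Normalized to plate-median negative control; MAD z-scores, gene median, seed-adjusted.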

Sequence	z-score
GGAUAAGAGAAAAACAGAATT against Ect2	inactive: 0.771
CUAUGUGGUCACAAUAGAGTT against Olfr1360	inactive: -0.137
GGAAAGGGAGAUUUGUAAGTT against Hoxc4	inactive: -0.107
GGUAGAUCCAGUGUUUACATT against 5730455A04Rik	inactive: 0.408
GGAGGAACCUAAUUGAAUGTT against 2310016A09Rik	inactive: 1.14
GCCCUUUUCCUUAAUUUAUTT against Neurl	inactive: -0.289
GGUUUGAAGUGUUGACAUUTT against Drctnnb1a	inactive: -0.399
GGCUUUGUCGUUAAUUUUUTT against Auh	inactive: 0.562
GGUUGGUCAGACAAGGAUCTT against Mic2l1	inactive: 1.38
GGAGUCGUCACAGCAGAGATT against Stag2	inactive: -1.07
GGGUCUCUCAAAGAUCCUGTT against BC026432	inactive: 0.885
GGAUGGGAAGGUGAUUGUCTT against Gnb5	inactive: -2.39
GGGAGGCUCUGGUGAACAATT against Cyp2b13	inactive: -1.65
GGAAUACUGCUACAAAUGATT against Vav1	inactive: 1.73
CCAAUGAUUUCCUGCUAAATT against Lst1	inactive: 0.728
GCUAGAGUGUCAUGACUUUTT against BC038156	inactive: -0.194
CGGCGACAUUGUUUUGCUATT against Acvr2	inactive: -0.255
CGAAAUUUACAGGAGAUCCTT against Nup93	inactive: 0.514
CGGGAAGCUAUCAUCAAAATT against Rgs13	inactive: 0.119
GGUGGCUUCAGUAAGUUCCTT against Dusp6	inactive: -0.0667
GGGAGUGCCUGGGUUUGUATT against 0710001B24Rik	inactive: -1.51
GGAAUCAUAUCAGAAACUATT against Pde4b	inactive: 1.75
GCAUCCACUAUGGAGAAACTT against Ect2	inactive: 0.257

Sequence	z-score
GGGAUUGAUUUCAACAAUGTT against V1rc14	inactive: 0.137
GCCACUACAUAUAAACAUCTT against Spag1	inactive: 0.131
GGUAUGUUUACCAUAGCUCTT against Tbx18	inactive: 2.39
GGGCAAAUAUCCUUAGUCATT against AW125753	inactive: 0.568
GGCCGUGGUAGAUUUCCUCTT against BC025816	inactive: 1.26
GCUGUUCUGCAAAACUGGATT against Rbpms	inactive: -0.524
GCAAGAUACCAAAUGCAUATT against Zfp316	inactive: 0.225
GGUUGGUAGUCCUUUAAGATT against AW212607	inactive: 0.715
GGAUCGAGACAAGGCCAAATT against Fes	inactive: 0.581
GGGAGAAGCAGAAAGAACUTT against Rundc1	inactive: 0.215
GGAACUCCUAAAGAAGAGGTT against Galnt15	inactive: 0.896
GCUCGAGAGUACUGUAGGCTT against Myst1	inactive: 0.00323
CCCUGUUACAGUCAGAAGCTT against Slc39a13	inactive: -0.371
GUACACCAGUGGAAGCACATT against Sprr2b	inactive: -1.25
GGUUCUCAGGGUCCUAAACTT against 1600014E20Rik	inactive: -0.0581
CCAUGGCCUAGAGCUGGAUTT against Unc5cl	inactive: 0.136
CCAUAUUCCGGUUAAUUCATT against 1700102P08Rik	inactive: 0.507
GCACUGAUGUUAUCCGAAGTT against AW552001	inactive: 0.627
GGUGUCCGUAAAUGGAGUGTT against A430033K04	inactive: -0.587
GCAGCUCGAUGGAACUCCATT against Abl1	inactive: -0.66
GGUCAGAUUCUUUGAUGAATT against Ssr4	inactive: 0.72
GGGUUUGGCCAUGAAUUUGTT against Hgf	inactive: 0.514
CCCUAAACCAGAUGCGUACTT against Epn3	inactive: 0.627

Random excerpt: 3 entries already listed, in no set order.
Sequence	z-score
GCCACUACAUAUAAACAUCTT against Spag1	inactive: 0.131
GCAAGAUACCAAAUGCAUATT against Zfp316	inactive: 0.225
CGGGAAGCUAUCAUCAAAATT against Rgs13	inactive: 0.119

More records.

Sequence	z-score
GGAGUCAUAUGCACAGAUCTT against Tcte3	inactive: 0.829
CAUAUGAAAAUGAAUGCCATT against Spink4	inactive: 0.587
GCGCAUGACUACAUCAGCUTT against Ptgs1	inactive: -1.75
GGACUGUGGAUAACCUGCUTT against Hspb2	inactive: 1.03
GGAUAAAUGCCAUUUUGGATT against Cpeb1	inactive: -0.04
GGACAAGUAAAACAGAACATT against Muc4	inactive: 0.255
GGGUUUUGGGAUAAAUAACTT against D030056L22	inactive: -0.0651
GGAUCUGAAAGAUUAGAUUTT against 9030221C07Rik	inactive: 0.122
GCCUUGUGACGACAUAAAGTT against Rabl3	inactive: -0.295
CCUUGUUUGAAUAACGAACTT against 5830427D03Rik	inactive: 0.463
GGAUAUGUCAGCAUAUGUGTT against Gas41	inactive: -0.0702
GGCGUGUCCUACCUUGAAATT against Scg3	inactive: -1.09
GCAAAUACUCUCAACUAACTT against Celsr3	inactive: 1.34
GUACAUCAUAGCCAAGUUCTT against Foxl2	inactive: -1.17
GGAAAGGAAUGUUCAAAUUTT against Psmb8	inactive: -0.552
GCGAGAGUUCAAUGCGUUUTT against Pwp2h	inactive: -1.56
GGAAAGAAGAAAGUGCAAUTT against Tns	inactive: 1.89
CGUAUGUUGGAACAAAUGCTT against Map2k5	inactive: 0.883
GGCUUUCGGUUAUGACCAATT against Alas2	inactive: 0.164
GCCUUUAAGUGGAAUCAGUTT against Serhl	inactive: -0.65
GGAUAACCCUAAGUUUAUGTT against Clu	inactive: 1.85
